The results in this text go back to article PMC7033600.

Results are given in words; binding and its absence hold for the method and conditions named. In cells and extracts the contact can be indirect. Some results given as binding are weak or reduced against the parent protein; the word gives no strength. For some assays here: Sequences can lack the tags named with a protein.

What all share (assay): pull-down; RING1B, PCGF1 and RYBP coexpressed in E. coli from one polycistronic plasmid; trimeric complexes affinity purified via 6xHis-tagged RING1B on Ni2+-charged IMAC Sepharose (lysis 20 mM Tris pH 8.0, 500 mM NaCl, 0.1% NP-40; wash 300 mM NaCl, 20 mM imidazole); Coomassie-stained gel
The target in assay [1] is RING1B^I53A/D56K, tagged with StrepII and 6xHis tags (mouse) (UniProt Q9CQJ4).
For assay [2], the target named is RING1B^I53A, tagged with StrepII and 6xHis tags (mouse) (UniProt Q9CQJ4).
In assay [3] the target is RING1B (wild-type), tagged with StrepII and 6xHis tags (mouse) (UniProt Q9CQJ4).
Assay [4] has as its target T1, RING1B^I53A, tagged with StrepII and 6xHis tags (mouse), Q9CQJ4.
T1 chain: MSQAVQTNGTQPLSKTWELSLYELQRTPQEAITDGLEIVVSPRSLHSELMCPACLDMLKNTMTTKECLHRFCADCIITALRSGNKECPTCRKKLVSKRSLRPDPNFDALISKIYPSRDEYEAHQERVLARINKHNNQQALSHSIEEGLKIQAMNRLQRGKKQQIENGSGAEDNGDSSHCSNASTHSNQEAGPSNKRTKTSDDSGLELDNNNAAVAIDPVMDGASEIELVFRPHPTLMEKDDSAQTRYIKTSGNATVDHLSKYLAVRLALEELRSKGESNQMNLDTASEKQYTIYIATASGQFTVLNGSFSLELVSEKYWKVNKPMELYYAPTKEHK
The note with it: remark: other sources report otherwise.

B1: RYBP (protein, UniProt Q8CCI5 1-228)
chain: MTMGDKKSPTRPKRQAKPAADEGFWDCSVCTFRNSAEAFKCSICDVRKGTSTRKPRINSQLVAQQVAQQYATPPPPKKEKKEKVEKPDKEKPEKDKDISPSVTKKNTNKKTKPKSDILKDPPSEANSIQSANATTKTSETNHTSRPRLKNVDRSTAQQLAVTVGNVTVIITDFKEKTRSSSTSSSTVTSSAGSEQQNQSSSGSESTDKGSSRSSTPKGDMSAVNDESF
In the case of B1, the binding entry in assay [1], in assay [2] and in assay [3] was “binds” each time.

B2: PCGF1, Q8R023 1-259 (protein)
chain: MASPQGGQIAIAMRLRNQLQSVYKMDPLRNEEEVRVKIKDLNEHIVCCLCAGYFVDATTITECLHTFCKSCIVKYLQTSKYCPMCNIKIHETQPLLNLKLDRVMQDIVYKLVPGLQDSEEKRIREFYQSRGLDRVSQPSGEEPALSNLGLPFSSFDHSKAHYYRYDEQLSLCLERLSSGKDKNKNVLQNKYVRCSVRAEVRHLRRVLCHRLMLNPQHVQLLFDNEVLPDHMTMKQLWLSRWFGKPSPLLLQYSVKEKRR
As to B2, the binding entry in assay [4] is given as “binds”.

B3: PCGF1 (protein, UniProt Q8R023 1-259)
chain: MASPQGGQIAIAMRLRNQLQSVYKMDPLRNEEEVRVKIKDLNEHIVCCLCAGYFVDATTITECLHTFCKSCIVKYLQTSKYCPMCNIKIHETQPLLNLKLDRVMQDIVYKLVPGLQDSEEKRIREFYQSRGLDRVSQPSGEEPALSNLGLPFSSFDHSKAHYYRYDEQLSLCLERLSSGKDKNKNVLQNKYVRCSVRAEVRHLRRVLCHRLMLNPQHVQLLFDNEVLPDHMTMKQLWLSRWFGKPSPLLLQYSVKEKRR
As for B3, the binding entry in assay [1] was “binds”.
